# In paper PMC6318328, “Structural insights into trans-histone regulation of H3K4 methylation by unique histone H4 binding of MLL3/4” (Nature Communications, 2019):
# No constants are given. Whether binding was seen depends on the method and setting.
# T1: MLL3_(ePHD6)_(1055–1144) (human) (UniProt Q8NEZ4)
# T1 sequence: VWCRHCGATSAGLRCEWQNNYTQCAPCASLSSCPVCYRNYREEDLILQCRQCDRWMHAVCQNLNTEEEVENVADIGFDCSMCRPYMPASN
# B1: MLL3_(ePHD6)_(1055–1144) (domain or fragment, UniProt Q8NEZ4 1055-1144)
# chain: VWCRHCGATSAGLRCEWQNNYTQCAPCASLSSCPVCYRNYREEDLILQCRQCDRWMHAVCQNLNTEEEVENVADIGFDCSMCRPYMPASN
# B2: MLL3_(PHD6)_(1085–1144) (domain or fragment, UniProt Q8NEZ4 1085-1144)
# chain: SSCPVCYRNYREEDLILQCRQCDRWMHAVCQNLNTEEEVENVADIGFDCSMCRPYMPASN
# Tests used:
# [1] = molecular target: T1, MLL3_(ePHD6)_(1055–1144) (human); assay: SEC; gel-filtration profiles of the purified domains (Supplementary Fig. 3); both purified
# [2] = molecular target: T1, MLL3_(ePHD6)_(1055–1144) (human); assay: crystal structure; MLL3 ePHD6 mixed with histone H4 peptide (residues 1–20) at a molar ratio 1:3; sitting drop, 18 °C; 2 M sodium formate, 0.1 M Tris pH 8.5; 1.80 Å; both purified
# [3] = molecular target: MLL3_(PHD6)_(1085–1144) (human) (UniProt Q8NEZ4); assay: SEC; gel-filtration profiles of the purified domains (Supplementary Fig. 3); both purified
Binder,binding [1],binding [2],binding [3]
B1,no binding,no binding,
B2,,,no binding
